Data as given in PubChem BioAssay AID256 (DTP/NCI, 2004).
The list is a part of this screen's results and no random one: it is rich in T/C values a quarter to a half above the control, in often repeated tests (any T/C) and in doses without a T/C. Other doses and runs of a compound stand elsewhere. T/C is the treated group as % of the vehicle group. Some entries give survivors of the animals treated and no T/C: the source holds a T/C of zero for them, seemingly a mark for toxic or unscored doses. Some survivor counts are full or nearly so, which does not show that the dose was tolerated: the source hardly ever lists a survival T/C far under the control, and the zero likely stands for such cases as well. Counts of survivors are from the toxicity check (mostly the fifth day) where no day follows; animals may have died later. Schedules are NCI's codes, read here as Q, the interval in days (D) or hours (H), X, the number of doses. Where survival is the endpoint, this PubChem deposit counts one and a half times the control or more as active, and values a quarter to a half above the control carry no call in these data; other NCI protocols may use other cut-offs. Some T/C values carry the count of animals alive at the toxicity check (mostly the fifth day); where none is given, no animal had died by that day. Some doses were run more than once; their values stand side by side, smallest first. Brackets with × count equal records among those shown.

System: CD2F1 mice, L1210 leukemia ip, survival T/C
Assay: NCI In Vivo Anticancer Drug Screen. Data for tumor model L1210 Leukemia (intraperitoneal) in CD2F1 (CDF1) mice
Conditions: higher T/C = longer survival
Summary of the method: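 Mice carrying a transplanted tumor received test compound or vehicle alone. The value is the measurement in the treated group divided by that in the vehicle-treated control group.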

CC1CCC(NC(=O)N(CCCl)N=O)CC1 (stereo not given)
T/C (T/C endpoint: mean survival time, dose: 5.0 mg/kg/injection, schedule: Q01DX001 (sc), vehicle: saline): 96, 97, 103, 104 (2×), 110, 114 % of control
T/C (T/C endpoint: mean survival time, dose: 6.25 mg/kg/injection, schedule: Q01DX001 (ip), vehicle: distilled water + Tween-80): 127 % of control
T/C (T/C endpoint: mean survival time, dose: 6.25 mg/kg/injection, schedule: Q01DX001 (ip), vehicle: other, evaluated on day 30): 108, 113, 115, 118, 125, 127 (2×), 128, 130, 131 (3×), 135 (2×), 145, 158, 165 % of control
T/C (T/C endpoint: mean survival time, dose: 6.25 mg/kg/injection, schedule: Q01DX001 (ip), vehicle: other, evaluated on day 35): 125 % of control
T/C (T/C endpoint: mean survival time, dose: 6.25 mg/kg/injection, schedule: Q01DX001 (ip), vehicle: other, evaluated on day 40): 128 and 189 % of control
T/C (T/C endpoint: mean survival time, dose: 6.25 mg/kg/injection, schedule: Q01DX001 (ip), vehicle: other, evaluated on day 45): 137 % of control
T/C (T/C endpoint: mean survival time, dose: 6.25 mg/kg/injection, schedule: Q01DX001 (ip), vehicle: saline, evaluated on day 30): 98 and 106 % of control
T/C (T/C endpoint: mean survival time, dose: 6.25 mg/kg/injection, schedule: Q01DX001 (ip), vehicle: saline, evaluated on day 60): 125 and 133 % of control
T/C (T/C endpoint: mean survival time, dose: 8.0 mg/kg/injection, schedule: Q01DX001 (ip), vehicle: other): 134 % of control
T/C (T/C endpoint: mean survival time, dose: 8.0 mg/kg/injection, schedule: Q01DX001 (ip), vehicle: saline + alcohol): 147 % of control
T/C (T/C endpoint: mean survival time, dose: 10.0 mg/kg/injection, schedule: Q01DX001 (sc), vehicle: saline): 94, 107, 118, 126, 133, 140, 142 % of control
T/C (T/C endpoint: mean survival time, dose: 12.5 mg/kg/injection, schedule: Q01DX001 (ip), vehicle: other, evaluated on day 30): 144, 149, 150, 153, 157, 166, 168, 172, 174, 177, 187, 232, 264, 265, 310, 314, 319 % of control
T/C (T/C endpoint: mean survival time, dose: 12.5 mg/kg/injection, schedule: Q01DX001 (ip), vehicle: other, evaluated on day 35): 219 % of control
T/C (T/C endpoint: mean survival time, dose: 12.5 mg/kg/injection, schedule: Q01DX001 (ip), vehicle: other, evaluated on day 40): 260 and 327 % of control
T/C (T/C endpoint: mean survival time, dose: 12.5 mg/kg/injection, schedule: Q01DX001 (ip), vehicle: other, evaluated on day 45): 176 % of control
T/C (T/C endpoint: mean survival time, dose: 12.5 mg/kg/injection, schedule: Q01DX001 (ip), vehicle: saline with Tween-80): 134 % of control
T/C (T/C endpoint: mean survival time, dose: 12.5 mg/kg/injection, schedule: Q01DX001 (ip), vehicle: saline, evaluated on day 30): 100 and 104 % of control
T/C (T/C endpoint: mean survival time, dose: 12.5 mg/kg/injection, schedule: Q01DX001 (ip), vehicle: saline, evaluated on day 60): 183 and 275 % of control
T/C (T/C endpoint: mean survival time, dose: 20.0 mg/kg/injection, schedule: Q01DX001 (sc), vehicle: saline): 93, 141, 171, 179, 263, 289, 398 % of control
T/C (T/C endpoint: mean survival time, dose: 25.0 mg/kg/injection, schedule: Q01DX001 (ip), vehicle: other, evaluated on day 30): 258, 265, 277, 292, 313, 314, 329 (2×), 332, 333 (2×), 337, 340, 348, 357, 375 % of control (2×)
T/C (T/C endpoint: mean survival time, dose: 25.0 mg/kg/injection, schedule: Q01DX001 (ip), vehicle: other, evaluated on day 35): 315 % of control
T/C (T/C endpoint: mean survival time, dose: 25.0 mg/kg/injection, schedule: Q01DX001 (ip), vehicle: other, evaluated on day 40): 306 and 454 % of control
T/C (T/C endpoint: mean survival time, dose: 25.0 mg/kg/injection, schedule: Q01DX001 (ip), vehicle: other, evaluated on day 45): 511 % of control
T/C (T/C endpoint: mean survival time, dose: 25.0 mg/kg/injection, schedule: Q01DX001 (ip), vehicle: saline, evaluated on day 30): 101 and 106 % of control
T/C (T/C endpoint: mean survival time, dose: 25.0 mg/kg/injection, schedule: Q01DX001 (ip), vehicle: saline, evaluated on day 60): 683 and 740 % of control
T/C (T/C endpoint: mean survival time, dose: 30.0 mg/kg/injection, schedule: Q01DX001 (sc), vehicle: saline): 95, 211, 270, 511, 514, 529, 663 % of control
T/C (T/C endpoint: mean survival time, dose: 40.0 mg/kg/injection, schedule: Q01DX001 (sc), vehicle: saline): 88, 101, 182, 527, 569, 585, 663 % of control
survivor count (T/C endpoint: mean survival time, dose: 50.0 mg/kg/injection, schedule: Q01DX001 (ip), vehicle: distilled water + Tween-80): 6 of 6
T/C (T/C endpoint: mean survival time, dose: 50.0 mg/kg/injection, schedule: Q01DX001 (ip), vehicle: other, evaluated on day 30): 102, 143, 184, 193, 203, 214, 224, 227, 238, 284, 295, 309, 315, 331, 333, 348 [5 of 6 alive], 375 % of control
T/C (T/C endpoint: mean survival time, dose: 50.0 mg/kg/injection, schedule: Q01DX001 (ip), vehicle: other, evaluated on day 35): 219 % of control
T/C (T/C endpoint: mean survival time, dose: 50.0 mg/kg/injection, schedule: Q01DX001 (ip), vehicle: other, evaluated on day 40): 302 and 314 % of control
T/C (T/C endpoint: mean survival time, dose: 50.0 mg/kg/injection, schedule: Q01DX001 (ip), vehicle: other, evaluated on day 45): 234 % of control
T/C (T/C endpoint: mean survival time, dose: 50.0 mg/kg/injection, schedule: Q01DX001 (ip), vehicle: saline, evaluated on day 30): 108 and 114 % of control
T/C (T/C endpoint: mean survival time, dose: 50.0 mg/kg/injection, schedule: Q01DX001 (ip), vehicle: saline, evaluated on day 60): 680 and 740 % of control
T/C (T/C endpoint: mean survival time, dose: 64.0 mg/kg/injection, schedule: Q01DX001 (ip), vehicle: saline + alcohol): 128 % of control [5 of 6 alive]
survivor count (T/C endpoint: mean survival time, dose: 100.0 mg/kg/injection, schedule: Q01DX001 (ip), vehicle: other): 4 of 6
survivor count (T/C endpoint: mean survival time, dose: 128.0 mg/kg/injection, schedule: Q01DX001 (ip), vehicle: other): 5 of 6
T/C (T/C endpoint: median survival time, dose: 5.0 mg/kg/injection, schedule: Q01DX001 (ip), vehicle: other): 111, 116, 120, 136 % of control
T/C (T/C endpoint: median survival time, dose: 6.25 mg/kg/injection, schedule: Q01DX001 (ip), vehicle: other): 125 % of control
T/C (T/C endpoint: median survival time, dose: 8.6 mg/kg/injection, schedule: Q04DX002 (ip), vehicle: saline + alcohol): 137 % of control
T/C (T/C endpoint: median survival time, dose: 10.0 mg/kg/injection, schedule: Q01DX001 (ip), vehicle: other): 144, 158, 161, 214 % of control
T/C (T/C endpoint: median survival time, dose: 12.5 mg/kg/injection, schedule: Q01DX001 (ip), vehicle: saline): 137 % of control
T/C (T/C endpoint: median survival time, dose: 20.0 mg/kg/injection, schedule: Q01DX001 (ip), vehicle: other): 198, 226, 268, 273 % of control
T/C (T/C endpoint: median survival time, dose: 24.0 mg/kg/injection, schedule: Q01DX001 (ip), vehicle: saline with Tween-80): 135 % of control
T/C (T/C endpoint: median survival time, dose: 40.0 mg/kg/injection, schedule: Q01DX001 (ip), vehicle: other): 315, 322, 397, 713 % of control
